Test results taken from the supplement of paper PMC10849652.
Some of the results follow.

Sequences of proteins named here, by UniProt entry; tags and fusion partners are left off. A change or cut given only in a name is not applied to a line headed by its entry.
UniProt Q9H0W9: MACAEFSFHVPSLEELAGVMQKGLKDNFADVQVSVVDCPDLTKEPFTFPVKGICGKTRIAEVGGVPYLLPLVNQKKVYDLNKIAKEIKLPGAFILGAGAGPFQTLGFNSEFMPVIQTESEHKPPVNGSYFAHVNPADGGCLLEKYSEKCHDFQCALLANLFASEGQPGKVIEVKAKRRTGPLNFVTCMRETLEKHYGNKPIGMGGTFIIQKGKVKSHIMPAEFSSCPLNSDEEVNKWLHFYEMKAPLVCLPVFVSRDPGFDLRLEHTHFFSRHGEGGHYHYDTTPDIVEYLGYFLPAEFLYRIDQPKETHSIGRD
UniProt Q9H9S4: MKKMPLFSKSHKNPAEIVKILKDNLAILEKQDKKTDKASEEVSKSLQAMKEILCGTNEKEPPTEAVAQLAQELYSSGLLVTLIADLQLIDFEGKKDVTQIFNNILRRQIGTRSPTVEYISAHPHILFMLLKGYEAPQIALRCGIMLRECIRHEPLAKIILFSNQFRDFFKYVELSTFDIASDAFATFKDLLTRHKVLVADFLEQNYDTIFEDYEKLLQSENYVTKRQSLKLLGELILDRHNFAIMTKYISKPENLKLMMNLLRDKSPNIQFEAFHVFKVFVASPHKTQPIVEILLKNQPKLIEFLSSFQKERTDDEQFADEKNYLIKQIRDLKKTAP
UniProt P47756, whole entry, looked up: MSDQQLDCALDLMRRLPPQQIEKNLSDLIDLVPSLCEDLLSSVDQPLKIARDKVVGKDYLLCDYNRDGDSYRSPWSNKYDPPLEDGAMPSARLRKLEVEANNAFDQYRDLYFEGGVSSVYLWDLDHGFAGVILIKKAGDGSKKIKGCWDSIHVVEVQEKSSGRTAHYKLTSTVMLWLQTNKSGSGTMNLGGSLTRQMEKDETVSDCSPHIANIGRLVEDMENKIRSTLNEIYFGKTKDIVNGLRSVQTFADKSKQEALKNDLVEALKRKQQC
UniProt Q5T6V5: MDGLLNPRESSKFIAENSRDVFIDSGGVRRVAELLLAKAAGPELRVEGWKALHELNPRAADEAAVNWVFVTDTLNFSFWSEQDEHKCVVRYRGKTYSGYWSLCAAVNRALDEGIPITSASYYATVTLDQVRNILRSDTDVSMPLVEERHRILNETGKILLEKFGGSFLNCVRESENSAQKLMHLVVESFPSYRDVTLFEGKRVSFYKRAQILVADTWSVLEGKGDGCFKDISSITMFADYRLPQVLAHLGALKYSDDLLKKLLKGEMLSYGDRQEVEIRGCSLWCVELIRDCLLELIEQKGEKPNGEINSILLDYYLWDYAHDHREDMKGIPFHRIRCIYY
UniProt Q9NZ63: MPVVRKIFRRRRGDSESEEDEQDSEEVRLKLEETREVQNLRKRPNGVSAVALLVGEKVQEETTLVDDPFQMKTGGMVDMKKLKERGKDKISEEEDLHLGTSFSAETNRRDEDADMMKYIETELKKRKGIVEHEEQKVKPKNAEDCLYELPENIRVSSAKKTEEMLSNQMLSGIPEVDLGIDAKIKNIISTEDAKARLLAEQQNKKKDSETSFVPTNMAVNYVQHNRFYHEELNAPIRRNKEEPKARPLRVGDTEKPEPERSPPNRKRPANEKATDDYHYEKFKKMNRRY
UniProt Q8N6N3: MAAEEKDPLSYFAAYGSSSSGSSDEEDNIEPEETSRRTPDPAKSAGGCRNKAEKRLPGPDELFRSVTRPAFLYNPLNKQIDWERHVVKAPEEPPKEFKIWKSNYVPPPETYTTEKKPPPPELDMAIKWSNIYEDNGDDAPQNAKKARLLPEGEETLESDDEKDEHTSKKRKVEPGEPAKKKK
UniProt Q6P1X6: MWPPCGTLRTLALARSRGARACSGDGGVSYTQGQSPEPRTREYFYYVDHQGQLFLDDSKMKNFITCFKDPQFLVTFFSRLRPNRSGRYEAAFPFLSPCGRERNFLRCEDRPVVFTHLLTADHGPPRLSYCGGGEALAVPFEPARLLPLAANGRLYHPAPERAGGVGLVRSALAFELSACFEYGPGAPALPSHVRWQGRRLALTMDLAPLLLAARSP
UniProt Q96K31: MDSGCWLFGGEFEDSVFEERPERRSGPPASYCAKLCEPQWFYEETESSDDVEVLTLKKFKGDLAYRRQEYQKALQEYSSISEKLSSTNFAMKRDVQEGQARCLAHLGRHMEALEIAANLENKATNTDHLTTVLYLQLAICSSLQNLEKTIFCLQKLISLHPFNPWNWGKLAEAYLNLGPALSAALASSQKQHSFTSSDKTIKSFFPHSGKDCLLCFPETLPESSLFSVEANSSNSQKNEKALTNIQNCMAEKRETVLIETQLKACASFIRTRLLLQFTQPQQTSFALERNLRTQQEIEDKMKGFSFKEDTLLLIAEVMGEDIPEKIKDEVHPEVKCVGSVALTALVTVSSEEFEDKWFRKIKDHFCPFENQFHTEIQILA
UniProt Q8N1Q1: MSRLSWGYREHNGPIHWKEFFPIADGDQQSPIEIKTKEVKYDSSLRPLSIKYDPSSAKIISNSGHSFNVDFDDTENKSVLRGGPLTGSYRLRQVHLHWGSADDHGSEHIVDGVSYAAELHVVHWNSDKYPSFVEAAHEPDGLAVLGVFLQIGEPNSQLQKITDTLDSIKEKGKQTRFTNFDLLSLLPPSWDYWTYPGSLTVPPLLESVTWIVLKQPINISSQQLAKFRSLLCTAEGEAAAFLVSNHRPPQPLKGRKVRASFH
UniProt O60566, whole entry, looked up: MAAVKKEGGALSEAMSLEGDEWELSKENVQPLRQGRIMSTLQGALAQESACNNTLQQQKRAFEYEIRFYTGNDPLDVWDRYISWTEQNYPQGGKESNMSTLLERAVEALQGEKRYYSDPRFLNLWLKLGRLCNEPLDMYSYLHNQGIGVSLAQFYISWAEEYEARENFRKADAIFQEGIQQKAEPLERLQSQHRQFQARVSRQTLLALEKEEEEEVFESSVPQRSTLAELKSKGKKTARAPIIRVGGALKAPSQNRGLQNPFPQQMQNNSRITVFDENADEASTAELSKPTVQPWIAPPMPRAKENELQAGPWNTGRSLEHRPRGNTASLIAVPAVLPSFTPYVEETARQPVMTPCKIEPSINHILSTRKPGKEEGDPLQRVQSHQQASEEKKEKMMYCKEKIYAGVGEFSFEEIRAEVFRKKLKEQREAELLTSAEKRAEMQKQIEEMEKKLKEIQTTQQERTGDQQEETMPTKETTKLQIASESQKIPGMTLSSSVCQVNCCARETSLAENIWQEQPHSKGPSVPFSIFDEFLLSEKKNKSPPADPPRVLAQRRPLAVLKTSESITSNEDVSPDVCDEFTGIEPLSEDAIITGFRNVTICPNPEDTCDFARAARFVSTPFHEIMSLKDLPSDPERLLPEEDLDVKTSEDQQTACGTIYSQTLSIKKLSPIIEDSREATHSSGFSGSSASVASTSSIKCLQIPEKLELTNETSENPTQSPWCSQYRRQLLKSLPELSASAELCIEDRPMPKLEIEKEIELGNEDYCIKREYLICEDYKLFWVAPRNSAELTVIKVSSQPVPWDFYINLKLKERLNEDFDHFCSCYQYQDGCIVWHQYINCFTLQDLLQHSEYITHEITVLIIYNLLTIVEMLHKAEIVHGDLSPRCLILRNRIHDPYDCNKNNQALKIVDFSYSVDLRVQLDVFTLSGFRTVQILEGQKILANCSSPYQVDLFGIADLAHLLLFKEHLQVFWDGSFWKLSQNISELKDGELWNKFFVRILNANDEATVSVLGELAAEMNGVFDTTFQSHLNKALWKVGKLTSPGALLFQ
UniProt Q9H8G2: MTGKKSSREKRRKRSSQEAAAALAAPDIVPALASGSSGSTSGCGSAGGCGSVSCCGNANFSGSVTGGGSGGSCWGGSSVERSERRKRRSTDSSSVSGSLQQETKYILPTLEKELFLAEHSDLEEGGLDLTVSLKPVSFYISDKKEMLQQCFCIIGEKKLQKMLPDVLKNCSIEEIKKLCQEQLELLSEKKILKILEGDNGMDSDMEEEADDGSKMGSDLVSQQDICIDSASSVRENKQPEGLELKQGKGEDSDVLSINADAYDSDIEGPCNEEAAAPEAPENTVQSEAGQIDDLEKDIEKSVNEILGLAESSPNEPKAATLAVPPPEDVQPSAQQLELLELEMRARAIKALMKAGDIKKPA
UniProt Q9NSG2: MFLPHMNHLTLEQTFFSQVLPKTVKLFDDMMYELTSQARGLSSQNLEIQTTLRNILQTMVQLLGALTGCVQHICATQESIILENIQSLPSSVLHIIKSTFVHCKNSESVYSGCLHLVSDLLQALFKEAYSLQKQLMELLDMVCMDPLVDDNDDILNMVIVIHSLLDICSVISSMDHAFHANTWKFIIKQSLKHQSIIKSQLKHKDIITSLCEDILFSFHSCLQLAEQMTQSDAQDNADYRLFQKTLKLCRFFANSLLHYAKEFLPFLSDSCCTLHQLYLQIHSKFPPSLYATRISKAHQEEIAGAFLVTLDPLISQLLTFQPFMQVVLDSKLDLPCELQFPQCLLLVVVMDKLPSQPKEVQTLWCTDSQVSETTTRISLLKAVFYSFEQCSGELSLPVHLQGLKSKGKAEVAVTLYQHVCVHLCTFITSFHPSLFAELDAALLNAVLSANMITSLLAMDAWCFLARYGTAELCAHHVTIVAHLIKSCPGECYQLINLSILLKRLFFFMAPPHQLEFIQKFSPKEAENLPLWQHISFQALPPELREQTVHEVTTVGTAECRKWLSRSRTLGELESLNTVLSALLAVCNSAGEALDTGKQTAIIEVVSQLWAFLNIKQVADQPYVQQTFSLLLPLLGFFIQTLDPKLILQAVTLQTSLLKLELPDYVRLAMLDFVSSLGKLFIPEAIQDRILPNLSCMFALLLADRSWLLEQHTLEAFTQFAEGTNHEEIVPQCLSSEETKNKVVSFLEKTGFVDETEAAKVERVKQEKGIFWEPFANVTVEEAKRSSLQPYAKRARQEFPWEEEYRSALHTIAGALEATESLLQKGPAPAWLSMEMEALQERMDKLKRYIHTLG
UniProt Q9Y6W3: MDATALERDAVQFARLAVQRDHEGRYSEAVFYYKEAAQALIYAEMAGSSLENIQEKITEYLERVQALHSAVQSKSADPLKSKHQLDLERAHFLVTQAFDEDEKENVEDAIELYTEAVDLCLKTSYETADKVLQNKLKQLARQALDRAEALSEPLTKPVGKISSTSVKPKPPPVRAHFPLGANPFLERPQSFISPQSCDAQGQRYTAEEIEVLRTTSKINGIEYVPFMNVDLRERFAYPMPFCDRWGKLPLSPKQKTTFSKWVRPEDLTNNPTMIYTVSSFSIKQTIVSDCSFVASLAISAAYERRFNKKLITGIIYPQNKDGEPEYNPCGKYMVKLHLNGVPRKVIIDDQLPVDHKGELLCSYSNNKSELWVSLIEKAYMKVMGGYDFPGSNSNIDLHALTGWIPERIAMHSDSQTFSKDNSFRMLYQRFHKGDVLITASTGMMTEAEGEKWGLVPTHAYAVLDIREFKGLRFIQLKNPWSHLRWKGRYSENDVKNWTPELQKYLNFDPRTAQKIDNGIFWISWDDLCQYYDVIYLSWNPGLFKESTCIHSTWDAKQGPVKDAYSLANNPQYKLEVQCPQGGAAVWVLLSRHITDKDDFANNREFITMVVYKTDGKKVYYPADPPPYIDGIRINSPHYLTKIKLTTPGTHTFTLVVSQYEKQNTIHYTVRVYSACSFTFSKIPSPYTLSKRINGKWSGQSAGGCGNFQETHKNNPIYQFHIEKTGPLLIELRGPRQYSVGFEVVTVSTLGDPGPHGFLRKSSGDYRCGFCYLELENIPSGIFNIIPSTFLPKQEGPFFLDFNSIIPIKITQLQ
UniProt P00915: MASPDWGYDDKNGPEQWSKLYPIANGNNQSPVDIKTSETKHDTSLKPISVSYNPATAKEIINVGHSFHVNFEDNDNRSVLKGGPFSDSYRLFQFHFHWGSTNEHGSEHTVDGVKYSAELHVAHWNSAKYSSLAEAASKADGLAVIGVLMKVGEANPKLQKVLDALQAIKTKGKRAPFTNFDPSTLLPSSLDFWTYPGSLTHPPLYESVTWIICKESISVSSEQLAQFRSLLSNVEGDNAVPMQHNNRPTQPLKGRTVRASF
UniProt P05937: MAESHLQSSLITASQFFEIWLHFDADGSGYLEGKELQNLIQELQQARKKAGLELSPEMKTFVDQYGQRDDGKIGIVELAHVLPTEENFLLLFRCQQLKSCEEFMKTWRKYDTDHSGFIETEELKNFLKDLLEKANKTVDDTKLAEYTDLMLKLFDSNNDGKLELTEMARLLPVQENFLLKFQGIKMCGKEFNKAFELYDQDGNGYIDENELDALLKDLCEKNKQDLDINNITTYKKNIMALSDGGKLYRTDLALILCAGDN
UniProt Q8N8R5: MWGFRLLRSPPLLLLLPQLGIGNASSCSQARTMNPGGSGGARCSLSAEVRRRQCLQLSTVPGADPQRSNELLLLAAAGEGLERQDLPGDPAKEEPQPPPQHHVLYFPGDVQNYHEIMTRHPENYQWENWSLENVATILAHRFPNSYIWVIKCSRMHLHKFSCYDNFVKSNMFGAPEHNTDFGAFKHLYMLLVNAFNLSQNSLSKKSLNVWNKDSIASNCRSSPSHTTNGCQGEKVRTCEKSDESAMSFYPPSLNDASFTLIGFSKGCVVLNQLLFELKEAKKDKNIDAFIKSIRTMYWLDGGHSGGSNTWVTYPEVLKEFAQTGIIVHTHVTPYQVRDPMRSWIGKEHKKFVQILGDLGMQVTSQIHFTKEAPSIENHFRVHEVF

Experiments:
Test in all cases: log2 fold change, soluble protein after heating vs DMSO (PISA); higher = thermal stabilisation; K562 lysate, 10 uM; active = over 0.2 and 3.5 SD of the protein, either way, in both replicates (recomputed)
nilotinib = compound: Cc1cn(-c2cc(NC(=O)c3ccc(C)c(Nc4nccc(-c5cccnc5)n4)c3)cc(C(F)(F)F)c2)cn1 [nilotinib]
Summary of the method: (§1)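 Log-two fold change in thermal stability relative to solvent controls is reported from duplicates. For each sample, crude K562 extract from dounce-homogenised pellets in PBS pH 7.4 with 1 mM MgCl2, at 1 mg/mL protein, was treated with 10 μM compound for 30 min. Aliquots heated for 3 min across 48°C-58°C were pooled, brought to 0.5% NP-40 at 4°C and cleared at 21,000xg for 90 min. The supernatant was quantified by TMTpro 16plex LC-MS/MS with channel sums equalised.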

[1] = compound: Cc1nc(Nc2n[nH]c3c2CN(C(=O)N[C@H](CN(C)C)c2ccccc2)C3(C)C)c2sccc2n1
Summary of the method: as §1

dasatinib = compound: Cc1nc(Nc2ncc(C(=O)Nc3c(C)cccc3Cl)s2)cc(N2CCN(CCO)CC2)n1 [dasatinib]
Summary of the method: as §1

[2] = compound: Cc1ncc(-c2ccnc(Nc3ccc(S(C)(=O)=O)cc3)n2)n1C(C)C
Summary of the method: as §1

[3] = compound: Cn1cc(-c2ccc3c(c2)CCN3C(=O)Cc2cccc(C(F)(F)F)c2)c2c(N)ncnc21
Summary of the method: as §1

quisinostat = compound: Cn1cc(CNCC2CCN(c3ncc(C(=O)NO)cn3)CC2)c2ccccc21 [quisinostat]
Summary of the method: as §1

tipifarnib = compound: Cn1cncc1[C@@](N)(c1ccc(Cl)cc1)c1ccc2c(c1)c(-c1cccc(Cl)c1)cc(=O)n2C [tipifarnib]
Summary of the method: as §1

[4] = compound: NC(=O)Nc1cc(-c2cccc(F)c2)sc1C(=O)N[C@H]1CCCNC1
Summary of the method: as §1

[5] = compound: NC(=O)c1cnc(N[C@@H]2CCCC[C@@H]2N)nc1Nc1cccc(-n2nccn2)c1
Summary of the method: as §1

[6] = compound: NC1(c2ccc(-c3nc4ccn5c(=O)[nH]nc5c4cc3-c3ccccc3)cc2)CCC1
Summary of the method: as §1

Measured: log2 fold change

C11orf54 (UniProt Q9H0W9)
inactive: nilotinib 0.054 | [1] -0.008 | dasatinib 0.012 | [2] 0.031 | [3] -0.05 | quisinostat 0.042 | tipifarnib 0.018 | [4] 0.003 | [5] -0.014 | [6] -0.002

C2CD2L (UniProt O14523)
inactive: nilotinib 0.006 | [1] 0.022 | dasatinib -0.099 | [2] 0.007 | [3] 0.02 | quisinostat -0.079 | tipifarnib -0.088 | [4] -0.006 | [5] 0.015 | [6] 0.046

C12orf73 (UniProt Q69YU5)
inactive: nilotinib 0.047 | [1] 0.07 | dasatinib 0.118 | [2] 0.061 | [3] -0.046 | quisinostat 0.055 | tipifarnib -0.032 | [4] -0.113 | [5] 0.049 | [6] 0

CAB39L (UniProt Q9H9S4)
inactive: nilotinib 0.033 | [1] -0.056 | dasatinib -0.138 | [2] -0.02 | [3] -0.018 | quisinostat -0.147 | tipifarnib 0.001 | [4] 0.028 | [5] -0.01 | [6] -0.029

CAPZB isoform 2 (UniProt P47756)
inactive: nilotinib -0.075 | [1] 0.022 | dasatinib 0.024 | [2] -0.009 | [3] -0.09 | quisinostat -0.052 | tipifarnib -0.021 | [4] -0.071 | [5] 0.034 | [6] 0.005

C9orf64 (UniProt Q5T6V5)
inactive: nilotinib -0.007 | [1] -0.001 | dasatinib -0.067 | [2] -0.011 | [3] 0.024 | quisinostat 0.039 | tipifarnib 0.012 | [4] -0.022 | [5] 0.008 | [6] -0.007

C9orf78 (UniProt Q9NZ63)
inactive: nilotinib -0.013 | [1] 0.044 | dasatinib 0.057 | [2] 0.017 | [3] 0.005 | quisinostat 0.02 | tipifarnib -0.005 | [4] -0.028 | [5] -0.008 | [6] 0.008

C20orf27 isoform 2 (UniProt Q9GZN8)
inactive: nilotinib 0.012 | [1] -0.065 | dasatinib -0.015 | [2] -0.026 | [3] -0.108 | quisinostat 0.045 | tipifarnib 0.013 | [4] 0.01 | [5] -0.097 | [6] -0.053

C1orf52 (UniProt Q8N6N3)
inactive: nilotinib -0.011 | [1] 0.039 | dasatinib 0.016 | [2] -0.008 | [3] -0.045 | quisinostat 0.028 | tipifarnib -0.079 | [4] 0.013 | [5] 0.015 | [6] -0.016

C1orf167 isoform 2 (UniProt Q5SNV9)
inactive: nilotinib -0.193 | [1] 0 | dasatinib -0.051 | [2] -0.013 | [3] -0.047 | quisinostat -0.304 | tipifarnib -0.053 | [4] 0.055 | [5] 0.052 | [6] -0.011

C8orf82 (UniProt Q6P1X6)
inactive: nilotinib 0.021 | [1] -0.076 | dasatinib -0.022 | [2] 0.053 | [3] 0.04 | quisinostat -0.024 | tipifarnib 0.044 | [4] -0.013 | [5] 0.006 | [6] -0.041

C8orf76 (UniProt Q96K31)
inactive: nilotinib -0.01 | [1] -0.05 | dasatinib 0.065 | [2] 0.039 | [3] 0.039 | quisinostat -0.005 | tipifarnib 0.016 | [4] 0.003 | [5] -0.014 | [6] -0.032

CA13 (UniProt Q8N1Q1)
inactive: nilotinib 0.132 | [1] -0.059 | dasatinib -0.017 | [2] 0.055 | [3] 0.025 | quisinostat -0.008 | tipifarnib -0.026 | [4] 0.062 | [5] -0.003 | [6] -0.009

BUB1B isoform 3 (UniProt O60566)
inactive: nilotinib 0.007 | [1] -0.012 | dasatinib -0.015 | [2] 0.014 | [3] 0.024 | quisinostat -0.076 | tipifarnib -0.013 | [4] 0.028 | [5] -0.003 | [6] -0.004

CAAP1 (UniProt Q9H8G2)
inactive: nilotinib -0.044 | [1] 0.046 | dasatinib -0.009 | [2] 0.011 | [3] -0.088 | quisinostat -0.077 | tipifarnib 0.03 | [4] -0.117 | [5] 0.055 | [6] -0.033

C1orf112 (UniProt Q9NSG2)
inactive: nilotinib 0.089 | [1] -0.015 | dasatinib -0.102 | [2] 0.017 | [3] 0.05 | quisinostat -0.1 | tipifarnib -0.046 | [4] 0.036 | [5] -0.03 | [6] -0.007

CAPN7 (UniProt Q9Y6W3)
inactive: nilotinib 0.022 | [1] -0.018 | dasatinib 0.016 | [2] -0.036 | [3] 0.035 | quisinostat -0.012 | tipifarnib 0.009 | [4] -0.002 | [5] 0.006 | [6] -0.022

6 successive records from above, for reference:
C1orf52 (UniProt Q8N6N3)
inactive: nilotinib -0.011 | [1] 0.039 | dasatinib 0.016 | [2] -0.008 | [3] -0.045 | quisinostat 0.028 | tipifarnib -0.079 | [4] 0.013 | [5] 0.015 | [6] -0.016

C1orf167 isoform 2 (UniProt Q5SNV9)
inactive: nilotinib -0.193 | [1] 0 | dasatinib -0.051 | [2] -0.013 | [3] -0.047 | quisinostat -0.304 | tipifarnib -0.053 | [4] 0.055 | [5] 0.052 | [6] -0.011

C8orf82 (UniProt Q6P1X6)
inactive: nilotinib 0.021 | [1] -0.076 | dasatinib -0.022 | [2] 0.053 | [3] 0.04 | quisinostat -0.024 | tipifarnib 0.044 | [4] -0.013 | [5] 0.006 | [6] -0.041

C8orf76 (UniProt Q96K31)
inactive: nilotinib -0.01 | [1] -0.05 | dasatinib 0.065 | [2] 0.039 | [3] 0.039 | quisinostat -0.005 | tipifarnib 0.016 | [4] 0.003 | [5] -0.014 | [6] -0.032

CA13 (UniProt Q8N1Q1)
inactive: nilotinib 0.132 | [1] -0.059 | dasatinib -0.017 | [2] 0.055 | [3] 0.025 | quisinostat -0.008 | tipifarnib -0.026 | [4] 0.062 | [5] -0.003 | [6] -0.009

BUB1B isoform 3 (UniProt O60566)
inactive: nilotinib 0.007 | [1] -0.012 | dasatinib -0.015 | [2] 0.014 | [3] 0.024 | quisinostat -0.076 | tipifarnib -0.013 | [4] 0.028 | [5] -0.003 | [6] -0.004

Further results.

CA1 (UniProt P00915)
inactive: nilotinib 0.006 | [1] 0.023 | dasatinib 0.006 | [2] 0.009 | [3] 0.016 | quisinostat -0.008 | tipifarnib 0.066 | [4] -0.007 | [5] -0.007 | [6] -0.008

C12orf45 (UniProt Q8N5I9)
inactive: nilotinib -0.026 | [1] -0.003 | dasatinib 0.019 | [2] -0.017 | [3] 0.035 | quisinostat -0.019 | tipifarnib -0.014 | [4] -0.015 | [5] 0 | [6] 0.024

CALB1 (UniProt P05937)
inactive: nilotinib -0.003 | [1] 0.004 | dasatinib 0.041 | [2] 0.007 | [3] 0.024 | quisinostat 0.046 | tipifarnib 0.016 | [4] -0.029 | [5] 0.013 | [6] 0.007

BUB1 (UniProt O43683)
inactive: nilotinib 0.018 | [1] -0.038 | dasatinib -0.144 | [2] 0.115 | [3] -0.035 | quisinostat -0.273 | tipifarnib -0.037 | [4] 0.088 | [5] 0.063 | [6] -0.06

CAND1 (UniProt F5H6I6)
inactive: nilotinib 0.069 | [1] -0.144 | dasatinib 0.011 | [2] -0.05 | [3] 0.06 | quisinostat -0.083 | tipifarnib 0.038 | [4] 0.044 | [5] 0.058 | [6] -0.157

C19orf53 (UniProt Q9UNZ5)
inactive: nilotinib -0.022 | [1] 0.058 | dasatinib 0.062 | [2] -0.053 | [3] -0.004 | quisinostat -0.019 | tipifarnib -0.029 | [4] -0.027 | [5] 0.031 | [6] 0.141

C11orf96 (UniProt Q7Z7L8)
inactive: nilotinib -0.071 | [1] 0.032 | dasatinib 0.006 | [2] 0.075 | [3] -0.031 | quisinostat -0.055 | tipifarnib 0.025 | [4] 0.059 | [5] -0.038 | [6] 0.014

CAMK2B (UniProt Q13554)
active: [1] 0.399
inactive: nilotinib -0.026 | dasatinib -0.055 | [2] 0.026 | [3] 0.023 | quisinostat -0.205 | tipifarnib -0.035 | [4] 0.295 | [5] 0.089 | [6] -0.045

CACYBP (UniProt Q9HB71)
inactive: nilotinib -0.016 | [1] -0.005 | dasatinib 0.031 | [2] -0.011 | [3] -0.013 | quisinostat 0.011 | tipifarnib 0.011 | [4] 0.006 | [5] -0.019 | [6] 0.017

CAMSAP1 isoform 3 (UniProt Q5T5Y3)
inactive: nilotinib -0.009 | [1] 0.038 | dasatinib -0.02 | [2] 0.005 | [3] -0.031 | quisinostat -0.038 | tipifarnib -0.03 | [4] -0.001 | [5] 0.012 | [6] 0.019

C2orf69 (UniProt Q8N8R5)
inactive: nilotinib 0.023 | [1] 0.009 | dasatinib 0.085 | [2] 0.022 | [3] 0.028 | quisinostat -0.04 | tipifarnib 0.046 | [4] 0.008 | [5] -0.027 | [6] 0.054

CAMK2G isoform 8 (UniProt Q13555)
inactive: nilotinib -0.007 | dasatinib -0.034 | [2] 0.039 | [3] -0.062 | quisinostat -0.125 | tipifarnib -0.005 | [4] 0.219 | [5] 0.019 | [6] -0.125
active: [1] 0.518
